Laboratory results published in patent KR20110024037A.
No constants are given. Whether binding was seen depends on the method and setting. Some entries that bind do so weakly or less than the wild type.

Protein sequences, listed by entry. Tags and fused reporters are not part of them. Residues count along the entry.
UniProt P16003, residues 26-458: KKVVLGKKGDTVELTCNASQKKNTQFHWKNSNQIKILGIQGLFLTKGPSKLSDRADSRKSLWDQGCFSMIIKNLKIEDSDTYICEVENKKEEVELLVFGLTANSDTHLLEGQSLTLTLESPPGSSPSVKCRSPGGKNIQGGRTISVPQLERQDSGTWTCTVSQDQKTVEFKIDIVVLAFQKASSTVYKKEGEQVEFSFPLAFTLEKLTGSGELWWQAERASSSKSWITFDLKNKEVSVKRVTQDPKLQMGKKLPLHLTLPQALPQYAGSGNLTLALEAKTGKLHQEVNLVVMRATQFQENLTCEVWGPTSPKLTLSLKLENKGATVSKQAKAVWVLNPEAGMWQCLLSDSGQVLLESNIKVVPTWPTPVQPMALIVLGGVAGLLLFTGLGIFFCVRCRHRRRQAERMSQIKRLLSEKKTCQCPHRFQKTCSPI

Experiments:
[1] = molecular target: 원숭이 CD4 항원 (Rhesus monkey CD4) (monkey (Rhesus)) (UniProt P16003); assay: flow cytometry on CHO CD4 transfectants, FITC anti-IgG secondary; CHO cells without CD4 as negative control
[2] = molecular target: 원숭이 CD4 항원 (Rhesus monkey CD4) (monkey (Rhesus)) (UniProt P16003); assay: immunohistochemistry on frozen monkey spleen sections, DAB

B1: 고 친화성 단일 클론 항 원숭이 CD4 항체 (수탁번호 KCLRF-BP-00211 융합세포주가 분비하는 단일클론항체) (antibody, V domains shown)
VH: QVQLQQSGAELAKPGASVKMSCKASGYTFTRNWMHWVKQRPGQGLEWIGYINPSTGYVEYNQKFRDKATLTADKSSNTAYIQLSSLTSEDSAVYFCATYRYDGNWGQGTLVTVS
VL: QIVLTQSPAIMSASLGERVTMTCTASSSVNSSNLHWYQQKPGSSPKLWIYSTSNLASGVPARFSGSGSGTSYSLTISSMEAEDAATYYCHQYHRSPLTFGAGTKLELKR
[1]
  binding: binds
[2]
  binding: binds
